Experimental data: PubChem BioAssay AID493246 (Drosophila RNAi Screening Center, 2011)

Test: 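Genes fly cells need to grow and stay alive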 (primary screen)
Cells: Drosophila Kc and S2R+ cells
Reagents: long dsRNA against Drosophila genes
Detection: 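Raw, unnormalised count of remaining cells in each well; per-plate z-scores of cell number underlie the calls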
Direction: Kc cell number and S2R+ cell number: higher = more cells remaining
Call rule: 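Active when the per-plate z-score of cell number is 3 or more in the direction of fewer cells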
The deposit covers about 21,000 reagents; shown is an unselected part of those that have a named target and a result. In the full data, 429 (2%) are marked active. 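Values are raw and not normalised between plates; calls rest on per-plate z-scores that were not deposited.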 Unmarked entries are inactive. The numbers tell different reagents against one gene apart. No sequences are given here. The record does not give: the amount of reagent, the time to read-out.

{"target gene": "chif (chiffon)", "reagent no.": 1, "Kc cell number, rep 1": 1.43e6, "Kc cell number, rep 2": 1.46e6, "S2R+ cell number, rep 1": 1.41e6, "S2R+ cell number, rep 2": 1.47e6}
{"target gene": "Exo70 (Exocyst 70)", "reagent no.": 1, "Kc cell number, rep 1": 1.55e6, "Kc cell number, rep 2": 1.49e6, "S2R+ cell number, rep 1": 1.17e6, "S2R+ cell number, rep 2": 1.23e6}
{"target gene": "CG31269", "reagent no.": 1, "Kc cell number, rep 1": 1.38e6, "Kc cell number, rep 2": 1.35e6, "S2R+ cell number, rep 1": 1.12e6, "S2R+ cell number, rep 2": 1.29e6}
{"target gene": "Srpk79D (Serine-arginine protein kinase at 79D)", "reagent no.": 1, "Kc cell number, rep 1": 1.75e6, "Kc cell number, rep 2": 1.71e6, "S2R+ cell number, rep 1": 1.40e6, "S2R+ cell number, rep 2": 1.41e6}
{"target gene": "Srpk79D (Serine-arginine protein kinase at 79D)", "reagent no.": 2, "Kc cell number, rep 1": 1.43e6, "Kc cell number, rep 2": 1.43e6, "S2R+ cell number, rep 1": 1.30e6, "S2R+ cell number, rep 2": 1.40e6}
{"target gene": "Spt20", "reagent no.": 1, "Kc cell number, rep 1": "1.20e6 (active)", "Kc cell number, rep 2": 1.25e6, "S2R+ cell number, rep 1": 7.70e5, "S2R+ cell number, rep 2": 7.97e5}
{"target gene": "CG5188", "reagent no.": 1, "Kc cell number, rep 1": 1.52e6, "Kc cell number, rep 2": 1.61e6, "S2R+ cell number, rep 1": 1.25e6, "S2R+ cell number, rep 2": 1.38e6}

Hits, among the entries above:
{"target gene": "Spt20", "reagent no.": 1, "Kc cell number, rep 1": "1.20e6 (active)", "Kc cell number, rep 2": 1.25e6, "S2R+ cell number, rep 1": 7.70e5, "S2R+ cell number, rep 2": 7.97e5}

The list goes on.
{"target gene": "CG2617", "reagent no.": 1, "Kc cell number, rep 1": 1.64e6, "Kc cell number, rep 2": 1.69e6, "S2R+ cell number, rep 1": 1.24e6, "S2R+ cell number, rep 2": 3.56e5}
{"target gene": "Cyp313a1 (Cytochrome P450 313a1)", "reagent no.": 1, "Kc cell number, rep 1": 1.41e6, "Kc cell number, rep 2": 1.38e6, "S2R+ cell number, rep 1": 1.12e6, "S2R+ cell number, rep 2": 1.26e6}
{"target gene": "rdhB (retinol dehydrogenase B)", "reagent no.": 1, "Kc cell number, rep 1": 1.56e6, "Kc cell number, rep 2": 1.59e6, "S2R+ cell number, rep 1": 1.26e6, "S2R+ cell number, rep 2": 1.26e6}
{"target gene": "CG13248", "reagent no.": 1, "Kc cell number, rep 1": 1.37e6, "Kc cell number, rep 2": 1.44e6, "S2R+ cell number, rep 1": 1.31e6, "S2R+ cell number, rep 2": 1.38e6}
{"target gene": "Tnpo (Transportin)", "reagent no.": 1, "Kc cell number, rep 1": 1.29e6, "Kc cell number, rep 2": 1.34e6, "S2R+ cell number, rep 1": 9.85e5, "S2R+ cell number, rep 2": 1.00e6}
